PMC12147180

The chains behind the UniProt entries cited, without tags or fusion partners. Where a name states a change or a piece, a line headed by the entry shows the natural chain unless it says otherwise.
UniProt P51686: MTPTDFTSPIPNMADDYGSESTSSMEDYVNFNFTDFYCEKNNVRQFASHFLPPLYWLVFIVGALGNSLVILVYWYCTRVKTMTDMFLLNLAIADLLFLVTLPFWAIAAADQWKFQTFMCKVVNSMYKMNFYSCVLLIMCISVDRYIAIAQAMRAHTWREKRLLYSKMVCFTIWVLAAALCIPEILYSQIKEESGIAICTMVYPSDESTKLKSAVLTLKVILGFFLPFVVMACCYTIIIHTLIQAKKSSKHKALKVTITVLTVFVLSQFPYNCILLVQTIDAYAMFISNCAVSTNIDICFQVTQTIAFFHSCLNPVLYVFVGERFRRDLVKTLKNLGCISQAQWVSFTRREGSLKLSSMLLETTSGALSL

Molecular target: CCR9 C1 (CCR9-RlucII with S335A/T347A/S352A/S356A/S357A) (human) (UniProt P51686)
Experiment: FRET or BRET; live HEK293 cells (parental; also ΔGRK2/3 and ΔGRK5/6 cells, where recruitment was only partially impacted) co-transfected with CCR9-RlucII (WT or ST/A mutants) and GFP10-β-arrestin2; 200 nM CCL25 or a titration of CCL25; HBSS + 0.1% BSA, Prolume Purple, 37 °C

- binding: binds
Substance: GFP10-β-arrestin2 (from UniProt P32121 1-409)

These are yes or no findings as the source states them, for the method shown. In cells and extracts the contact can be indirect. Binding can be weak; no strength is given.
